Results published in the supplement of paper PMC10849652.
This is one part of the list.

By UniProt entry, the sequences of proteins in these tests, tags left out. Where a name states a change or a piece, a line headed by the entry shows the natural chain unless it says otherwise.
UniProt O00571: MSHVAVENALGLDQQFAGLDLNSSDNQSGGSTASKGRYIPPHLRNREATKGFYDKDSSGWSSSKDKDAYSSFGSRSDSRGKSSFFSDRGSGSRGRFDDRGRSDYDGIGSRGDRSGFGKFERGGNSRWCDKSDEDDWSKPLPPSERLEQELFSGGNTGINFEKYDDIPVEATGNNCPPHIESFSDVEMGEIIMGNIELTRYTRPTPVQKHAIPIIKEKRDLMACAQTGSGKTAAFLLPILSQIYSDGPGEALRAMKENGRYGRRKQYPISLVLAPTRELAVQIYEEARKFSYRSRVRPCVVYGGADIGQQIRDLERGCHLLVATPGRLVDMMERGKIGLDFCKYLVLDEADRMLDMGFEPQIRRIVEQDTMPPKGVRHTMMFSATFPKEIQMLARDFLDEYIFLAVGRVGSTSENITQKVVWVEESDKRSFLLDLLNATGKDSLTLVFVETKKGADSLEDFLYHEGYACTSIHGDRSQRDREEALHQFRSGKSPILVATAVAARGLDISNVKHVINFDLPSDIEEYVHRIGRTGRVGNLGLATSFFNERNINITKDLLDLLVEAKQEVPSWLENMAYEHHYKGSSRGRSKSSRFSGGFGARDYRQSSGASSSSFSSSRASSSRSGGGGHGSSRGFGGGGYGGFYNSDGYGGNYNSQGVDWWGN
UniProt Q9H4E7, whole entry, looked up: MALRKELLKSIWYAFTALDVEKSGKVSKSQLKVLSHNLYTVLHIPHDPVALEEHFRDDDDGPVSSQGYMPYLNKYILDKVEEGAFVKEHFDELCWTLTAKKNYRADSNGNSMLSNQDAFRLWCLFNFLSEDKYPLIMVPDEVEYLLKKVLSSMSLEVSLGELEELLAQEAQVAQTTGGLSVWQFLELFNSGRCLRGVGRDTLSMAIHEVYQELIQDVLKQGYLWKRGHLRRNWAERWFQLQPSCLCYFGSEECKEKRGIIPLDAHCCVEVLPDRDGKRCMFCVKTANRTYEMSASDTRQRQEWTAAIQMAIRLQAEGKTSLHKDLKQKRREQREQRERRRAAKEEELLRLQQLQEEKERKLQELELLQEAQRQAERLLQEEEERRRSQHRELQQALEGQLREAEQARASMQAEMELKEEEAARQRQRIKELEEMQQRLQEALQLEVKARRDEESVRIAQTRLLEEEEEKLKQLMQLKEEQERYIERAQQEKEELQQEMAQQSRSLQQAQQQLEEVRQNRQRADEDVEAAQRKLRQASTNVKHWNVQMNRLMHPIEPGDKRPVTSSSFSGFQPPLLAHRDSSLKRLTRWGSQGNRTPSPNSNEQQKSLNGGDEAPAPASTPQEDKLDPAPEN
UniProt Q9UJW0, whole entry, looked up: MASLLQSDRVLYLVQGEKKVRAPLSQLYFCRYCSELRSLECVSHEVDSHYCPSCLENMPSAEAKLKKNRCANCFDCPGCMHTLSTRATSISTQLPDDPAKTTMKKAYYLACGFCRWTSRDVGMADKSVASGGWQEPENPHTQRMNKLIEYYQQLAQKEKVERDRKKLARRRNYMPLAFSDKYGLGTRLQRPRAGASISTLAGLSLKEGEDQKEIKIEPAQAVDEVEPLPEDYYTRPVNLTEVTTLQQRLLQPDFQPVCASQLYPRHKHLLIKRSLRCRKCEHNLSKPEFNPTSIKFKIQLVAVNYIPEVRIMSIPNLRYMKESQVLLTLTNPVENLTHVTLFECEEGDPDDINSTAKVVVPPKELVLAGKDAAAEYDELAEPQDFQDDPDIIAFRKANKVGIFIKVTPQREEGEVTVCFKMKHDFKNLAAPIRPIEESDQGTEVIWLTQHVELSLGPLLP
UniProt Q9NV06: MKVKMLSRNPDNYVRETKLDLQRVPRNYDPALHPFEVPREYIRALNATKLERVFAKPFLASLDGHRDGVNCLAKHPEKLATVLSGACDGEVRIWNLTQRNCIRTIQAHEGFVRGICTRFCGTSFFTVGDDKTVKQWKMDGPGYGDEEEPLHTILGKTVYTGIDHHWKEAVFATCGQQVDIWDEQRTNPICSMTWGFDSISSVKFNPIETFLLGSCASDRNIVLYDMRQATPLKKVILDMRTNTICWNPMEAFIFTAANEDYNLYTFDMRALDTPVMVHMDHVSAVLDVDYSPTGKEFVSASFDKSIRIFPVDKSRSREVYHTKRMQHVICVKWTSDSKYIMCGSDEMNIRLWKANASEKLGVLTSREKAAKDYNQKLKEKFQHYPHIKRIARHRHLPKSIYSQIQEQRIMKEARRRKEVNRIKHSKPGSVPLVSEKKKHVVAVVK
UniProt Q96EP5: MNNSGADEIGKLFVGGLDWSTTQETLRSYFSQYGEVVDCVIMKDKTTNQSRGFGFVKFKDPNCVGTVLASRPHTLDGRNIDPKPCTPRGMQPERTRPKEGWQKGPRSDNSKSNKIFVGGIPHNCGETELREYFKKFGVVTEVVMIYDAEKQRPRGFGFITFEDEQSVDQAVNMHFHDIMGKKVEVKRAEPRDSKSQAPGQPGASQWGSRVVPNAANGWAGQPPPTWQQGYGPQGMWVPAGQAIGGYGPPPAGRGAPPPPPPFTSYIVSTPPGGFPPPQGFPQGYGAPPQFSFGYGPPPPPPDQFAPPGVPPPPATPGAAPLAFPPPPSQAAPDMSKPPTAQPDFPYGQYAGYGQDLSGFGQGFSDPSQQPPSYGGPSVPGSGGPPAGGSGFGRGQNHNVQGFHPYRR
UniProt Q9BTE7: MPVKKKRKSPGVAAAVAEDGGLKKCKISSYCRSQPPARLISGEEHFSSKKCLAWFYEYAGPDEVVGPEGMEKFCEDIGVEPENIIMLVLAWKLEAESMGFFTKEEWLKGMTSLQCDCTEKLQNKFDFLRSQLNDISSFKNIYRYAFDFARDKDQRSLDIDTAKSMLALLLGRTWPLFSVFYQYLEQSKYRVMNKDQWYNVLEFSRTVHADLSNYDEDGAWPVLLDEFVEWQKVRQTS
UniProt Q7Z401: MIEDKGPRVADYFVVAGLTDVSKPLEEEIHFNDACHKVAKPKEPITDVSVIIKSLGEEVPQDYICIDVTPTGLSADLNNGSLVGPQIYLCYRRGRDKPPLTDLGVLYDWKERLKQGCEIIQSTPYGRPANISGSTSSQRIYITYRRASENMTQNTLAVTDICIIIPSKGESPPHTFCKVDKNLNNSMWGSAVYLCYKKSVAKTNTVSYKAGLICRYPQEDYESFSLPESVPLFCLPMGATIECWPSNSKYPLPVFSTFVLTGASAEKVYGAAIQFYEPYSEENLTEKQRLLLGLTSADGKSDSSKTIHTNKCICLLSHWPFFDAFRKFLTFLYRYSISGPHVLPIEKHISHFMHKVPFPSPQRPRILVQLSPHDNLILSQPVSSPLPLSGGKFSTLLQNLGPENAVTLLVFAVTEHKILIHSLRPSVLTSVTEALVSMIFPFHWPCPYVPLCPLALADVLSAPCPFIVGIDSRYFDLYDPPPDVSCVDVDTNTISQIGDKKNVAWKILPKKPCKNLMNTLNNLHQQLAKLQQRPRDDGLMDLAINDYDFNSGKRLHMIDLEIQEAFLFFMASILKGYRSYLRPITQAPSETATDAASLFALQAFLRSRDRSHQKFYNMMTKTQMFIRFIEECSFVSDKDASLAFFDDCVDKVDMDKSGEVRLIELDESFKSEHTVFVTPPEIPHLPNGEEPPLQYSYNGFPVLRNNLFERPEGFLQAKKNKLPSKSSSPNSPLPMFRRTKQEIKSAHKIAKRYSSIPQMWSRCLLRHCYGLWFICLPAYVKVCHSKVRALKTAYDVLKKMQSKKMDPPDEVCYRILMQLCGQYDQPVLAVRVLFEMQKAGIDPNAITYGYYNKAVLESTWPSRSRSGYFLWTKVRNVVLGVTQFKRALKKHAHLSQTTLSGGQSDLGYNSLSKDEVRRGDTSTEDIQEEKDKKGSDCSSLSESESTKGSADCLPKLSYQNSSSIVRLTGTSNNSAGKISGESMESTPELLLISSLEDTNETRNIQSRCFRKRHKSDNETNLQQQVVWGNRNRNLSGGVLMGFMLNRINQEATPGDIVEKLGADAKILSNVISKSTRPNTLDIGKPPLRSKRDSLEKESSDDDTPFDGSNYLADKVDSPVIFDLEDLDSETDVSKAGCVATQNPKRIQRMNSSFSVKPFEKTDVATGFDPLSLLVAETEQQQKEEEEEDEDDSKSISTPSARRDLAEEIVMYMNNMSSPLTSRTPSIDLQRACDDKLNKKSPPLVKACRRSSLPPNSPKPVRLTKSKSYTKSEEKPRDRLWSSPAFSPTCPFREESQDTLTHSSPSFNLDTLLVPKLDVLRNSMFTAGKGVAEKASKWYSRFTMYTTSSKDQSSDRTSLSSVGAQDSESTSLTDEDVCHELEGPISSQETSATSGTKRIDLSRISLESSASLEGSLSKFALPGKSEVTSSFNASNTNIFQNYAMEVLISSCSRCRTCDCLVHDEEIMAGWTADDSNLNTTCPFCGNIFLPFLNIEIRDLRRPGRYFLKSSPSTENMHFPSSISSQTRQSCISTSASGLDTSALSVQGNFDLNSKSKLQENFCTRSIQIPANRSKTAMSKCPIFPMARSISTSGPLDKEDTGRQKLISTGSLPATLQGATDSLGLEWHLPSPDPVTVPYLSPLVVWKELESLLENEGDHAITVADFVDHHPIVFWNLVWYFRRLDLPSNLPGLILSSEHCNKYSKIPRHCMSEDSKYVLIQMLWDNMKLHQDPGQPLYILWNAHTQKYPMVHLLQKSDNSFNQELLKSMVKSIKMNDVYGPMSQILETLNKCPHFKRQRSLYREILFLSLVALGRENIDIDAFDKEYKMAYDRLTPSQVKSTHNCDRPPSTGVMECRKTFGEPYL
UniProt P35659: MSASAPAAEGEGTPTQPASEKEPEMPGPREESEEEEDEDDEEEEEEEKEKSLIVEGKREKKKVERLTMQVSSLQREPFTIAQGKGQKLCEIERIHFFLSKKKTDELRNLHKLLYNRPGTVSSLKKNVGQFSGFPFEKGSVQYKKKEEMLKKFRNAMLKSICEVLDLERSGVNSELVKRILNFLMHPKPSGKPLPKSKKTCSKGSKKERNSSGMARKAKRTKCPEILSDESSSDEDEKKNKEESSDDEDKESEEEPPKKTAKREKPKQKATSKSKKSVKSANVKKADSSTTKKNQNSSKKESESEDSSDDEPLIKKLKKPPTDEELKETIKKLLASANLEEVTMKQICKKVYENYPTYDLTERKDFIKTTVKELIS
UniProt P30046: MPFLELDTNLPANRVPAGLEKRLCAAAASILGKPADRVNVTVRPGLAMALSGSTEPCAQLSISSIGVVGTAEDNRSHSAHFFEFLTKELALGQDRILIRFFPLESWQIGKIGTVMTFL
UniProt Q5T1V6: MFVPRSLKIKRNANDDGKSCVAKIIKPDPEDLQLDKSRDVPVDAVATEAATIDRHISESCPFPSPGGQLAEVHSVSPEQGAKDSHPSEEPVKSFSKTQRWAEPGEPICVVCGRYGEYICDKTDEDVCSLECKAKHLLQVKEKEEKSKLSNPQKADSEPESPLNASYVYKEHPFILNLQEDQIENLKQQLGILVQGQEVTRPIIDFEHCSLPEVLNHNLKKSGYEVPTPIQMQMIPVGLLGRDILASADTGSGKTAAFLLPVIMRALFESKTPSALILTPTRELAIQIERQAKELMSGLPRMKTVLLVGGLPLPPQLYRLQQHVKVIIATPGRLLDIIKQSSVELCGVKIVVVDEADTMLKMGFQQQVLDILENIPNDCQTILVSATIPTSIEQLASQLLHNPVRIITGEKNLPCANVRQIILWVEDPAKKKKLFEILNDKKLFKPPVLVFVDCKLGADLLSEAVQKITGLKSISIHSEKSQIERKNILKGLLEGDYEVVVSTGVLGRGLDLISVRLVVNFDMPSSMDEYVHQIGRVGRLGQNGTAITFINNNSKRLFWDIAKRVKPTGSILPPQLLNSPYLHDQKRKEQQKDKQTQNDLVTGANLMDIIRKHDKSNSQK
UniProt Q6P3S1: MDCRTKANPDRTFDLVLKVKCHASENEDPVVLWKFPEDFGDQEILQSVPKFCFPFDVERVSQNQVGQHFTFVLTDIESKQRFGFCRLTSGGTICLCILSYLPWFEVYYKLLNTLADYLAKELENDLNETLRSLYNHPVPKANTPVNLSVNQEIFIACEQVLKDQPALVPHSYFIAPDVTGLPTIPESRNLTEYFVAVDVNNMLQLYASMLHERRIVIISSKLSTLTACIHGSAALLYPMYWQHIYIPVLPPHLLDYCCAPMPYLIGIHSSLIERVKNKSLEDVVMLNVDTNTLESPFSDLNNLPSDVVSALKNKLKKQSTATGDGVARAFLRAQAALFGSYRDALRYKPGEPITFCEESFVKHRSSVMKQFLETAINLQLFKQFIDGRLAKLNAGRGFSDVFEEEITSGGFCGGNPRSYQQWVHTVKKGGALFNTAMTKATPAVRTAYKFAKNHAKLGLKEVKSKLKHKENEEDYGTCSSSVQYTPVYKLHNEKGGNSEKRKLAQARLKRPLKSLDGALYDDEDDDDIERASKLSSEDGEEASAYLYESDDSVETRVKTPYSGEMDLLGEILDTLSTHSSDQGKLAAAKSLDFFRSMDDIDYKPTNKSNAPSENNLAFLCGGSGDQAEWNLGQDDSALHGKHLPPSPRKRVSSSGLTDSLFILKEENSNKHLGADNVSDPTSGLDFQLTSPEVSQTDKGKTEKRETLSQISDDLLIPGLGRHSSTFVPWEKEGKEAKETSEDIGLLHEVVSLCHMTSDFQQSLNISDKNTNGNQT

These targets were tested with Cn1cncc1[C@@](N)(c1ccc(Cl)cc1)c1ccc2c(c1)c(-c1cccc(Cl)c1)cc(=O)n2C [tipifarnib] (assay: log2 fold change, soluble protein after heating vs DMSO (PISA); higher = thermal stabilisation; K562 lysate, 10 uM; active = over 0.2 and 3.5 SD of the protein, either way, in both replicates (recomputed)).
How it was run: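 To prepare the extract, K562 pellets were dounce-homogenised in PBS pH 7.4 with 1 mM MgCl2, giving crude material at 1 mg/mL protein. This was treated with 10 μM compound for 30 min, then heated in aliquots for 3 min over 48°C-58°C before pooling and addition of NP-40 to 0.5% at 4°C. Centrifugation at 21,000xg for 90 min left soluble protein in the supernatant, which TMTpro 16plex LC-MS/MS quantified with equalised channel sums. Results are log-two fold changes in thermal stability compared with solvent controls, from duplicates.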

Question: Which log2 fold change does the source give for CYP24A1 (UniProt Q07973) here?
Answer: inactive: -0.018

Question: DAGLB (UniProt Q8NCG7) was tested. Which log2 fold change did it give?
Answer: inactive: 0.066

Question: Which log2 fold change does the source give for DDX3X (UniProt O00571) here?
Answer: inactive: 0.027

Question: For DDB1 (UniProt Q16531), which log2 fold change is on record?
Answer: inactive: 0.011

Question: How did the log2 fold change turn out when DEF6 (UniProt Q9H4E7) was run?
Answer: inactive: 0.027

Question: With DDAH2 (UniProt O95865) as the target, how does the log2 fold change read?
Answer: inactive: 0.026

Question: How did the log2 fold change turn out when DECR2 (UniProt Q9NUI1) was run?
Answer: inactive: 0.132

Question: Which log2 fold change does the source give for DDX18 (UniProt Q9NVP1) here?
Answer: inactive: 0.002

Question: DCTN4 (UniProt Q9UJW0) was tested. Which log2 fold change did it give?
Answer: inactive: 0.03

Question: How did the log2 fold change turn out when DCTD isoform 2 (UniProt P32321) was run?
Answer: inactive: 0.03

Question: For DDX56 (UniProt Q9NY93), which log2 fold change is on record?
Answer: inactive: 0.012

Question: With DDX17 (UniProt Q92841) as the target, how does the log2 fold change read?
Answer: inactive: 0.005

Question: For DCXR (UniProt Q7Z4W1), which log2 fold change is on record?
Answer: inactive: 0.041

Question: DCTN2 isoform 3 (UniProt Q13561) was tested. Which log2 fold change did it give?
Answer: inactive: -0.001

Question: DCP2 (UniProt Q8IU60) was tested. Which log2 fold change did it give?
Answer: inactive: -0.012

Question: How did the log2 fold change turn out when DCAF11 (UniProt Q8TEB1) was run?
Answer: inactive: 0.055

Question: For DENND6A (UniProt Q8IWF6), which log2 fold change is on record?
Answer: inactive: -0.041

Question: How did the log2 fold change turn out when DCAF13 (UniProt Q9NV06) was run?
Answer: inactive: -0.012

Question: For DCAF15 (UniProt Q66K64), which log2 fold change is on record?
Answer: inactive: 0.097

Question: For DCAF4L2 (UniProt Q8NA75), which log2 fold change is on record?
Answer: inactive: 0.071

Question: With DCTN2 (UniProt Q13561) as the target, how does the log2 fold change read?
Answer: inactive: 0

Question: Which log2 fold change does the source give for DAZAP1 (UniProt Q96EP5) here?
Answer: inactive: -0.039

Question: With DFFA isoform 2 (UniProt O00273) as the target, how does the log2 fold change read?
Answer: inactive: 0.009

Question: Which log2 fold change does the source give for DCUN1D5 (UniProt Q9BTE7) here?
Answer: inactive: -0.062

Question: For DENND4A isoform 2 (UniProt Q7Z401), which log2 fold change is on record?
Answer: inactive: -0.017

Question: For DEK (UniProt P35659), which log2 fold change is on record?
Answer: inactive: 0.004

Question: How did the log2 fold change turn out when DCTN3 (UniProt O75935) was run?
Answer: inactive: 0.019

Question: How did the log2 fold change turn out when DAG1 (UniProt Q14118) was run?
Answer: inactive: 0.013

Question: DENND4C (UniProt Q5VZ89) was tested. Which log2 fold change did it give?
Answer: inactive: -0.025

Question: For DDT (UniProt P30046), which log2 fold change is on record?
Answer: inactive: 0.061

Question: For DDX59 (UniProt Q5T1V6), which log2 fold change is on record?
Answer: inactive: -0.02

Question: How did the log2 fold change turn out when DENND1B (UniProt Q6P3S1) was run?
Answer: inactive: 0.017
